Data taken from paper PMC4639896.
Substitutions are numbered along the chain they refer to. These are yes or no findings as the source states them, for the method shown. For part of these data: Binding seen in cells or lysates may run through a third protein. Some entries that bind do so weakly or less than the wild type. Tags and fused reporters may be left off the sequences shown. Each block holds one binder with its values, some of them ahead of it.

By UniProt entry, the sequences of proteins in these tests, tags left out.
UniProt Q9FY48: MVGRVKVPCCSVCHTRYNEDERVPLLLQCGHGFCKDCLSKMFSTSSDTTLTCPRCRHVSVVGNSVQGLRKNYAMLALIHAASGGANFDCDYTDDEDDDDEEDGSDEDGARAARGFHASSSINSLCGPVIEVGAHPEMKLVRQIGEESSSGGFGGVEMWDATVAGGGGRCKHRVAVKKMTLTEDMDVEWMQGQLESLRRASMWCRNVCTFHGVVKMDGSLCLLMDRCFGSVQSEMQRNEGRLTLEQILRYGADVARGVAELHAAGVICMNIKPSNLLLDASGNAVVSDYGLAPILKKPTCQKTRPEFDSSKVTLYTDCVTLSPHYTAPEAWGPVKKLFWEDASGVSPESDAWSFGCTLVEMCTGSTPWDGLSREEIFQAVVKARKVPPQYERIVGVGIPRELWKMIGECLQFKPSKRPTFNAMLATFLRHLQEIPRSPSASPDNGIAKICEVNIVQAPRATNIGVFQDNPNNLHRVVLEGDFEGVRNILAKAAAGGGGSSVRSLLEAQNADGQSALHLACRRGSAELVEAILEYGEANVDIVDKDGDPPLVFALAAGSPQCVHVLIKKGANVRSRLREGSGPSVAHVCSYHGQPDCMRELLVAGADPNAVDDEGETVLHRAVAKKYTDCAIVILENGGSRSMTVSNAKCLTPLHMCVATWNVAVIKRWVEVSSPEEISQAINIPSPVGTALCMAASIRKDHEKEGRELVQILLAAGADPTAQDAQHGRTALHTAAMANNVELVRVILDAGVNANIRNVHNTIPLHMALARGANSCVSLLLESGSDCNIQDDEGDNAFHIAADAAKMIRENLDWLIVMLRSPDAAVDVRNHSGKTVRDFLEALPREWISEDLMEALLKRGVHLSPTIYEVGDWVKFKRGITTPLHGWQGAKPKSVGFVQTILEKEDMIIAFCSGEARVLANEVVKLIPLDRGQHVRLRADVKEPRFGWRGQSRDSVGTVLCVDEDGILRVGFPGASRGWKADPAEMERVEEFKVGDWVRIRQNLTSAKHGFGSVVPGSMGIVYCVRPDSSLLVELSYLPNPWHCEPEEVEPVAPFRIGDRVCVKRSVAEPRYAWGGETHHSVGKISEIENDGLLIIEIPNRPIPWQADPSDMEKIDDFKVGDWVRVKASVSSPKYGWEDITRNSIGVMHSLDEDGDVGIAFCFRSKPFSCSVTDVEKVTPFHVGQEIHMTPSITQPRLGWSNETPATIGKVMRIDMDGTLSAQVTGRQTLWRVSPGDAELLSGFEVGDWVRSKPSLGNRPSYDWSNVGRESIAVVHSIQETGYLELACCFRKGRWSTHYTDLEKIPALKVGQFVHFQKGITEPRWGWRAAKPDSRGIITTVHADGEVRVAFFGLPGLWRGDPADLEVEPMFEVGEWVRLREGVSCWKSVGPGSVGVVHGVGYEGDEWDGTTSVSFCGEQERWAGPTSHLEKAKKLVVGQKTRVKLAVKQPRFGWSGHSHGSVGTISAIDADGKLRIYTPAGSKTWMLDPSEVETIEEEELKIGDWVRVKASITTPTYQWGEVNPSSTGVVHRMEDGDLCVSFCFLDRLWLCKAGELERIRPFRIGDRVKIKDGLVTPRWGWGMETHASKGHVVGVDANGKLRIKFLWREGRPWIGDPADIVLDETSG

Assays:
[1] = target: ABI5 (ABA … 5, basic leucine zipper transcription factor), yeast two-hybrid fusion (Arabidopsis thaliana) (UniProt Q9SJN0); assay: two-hybrid; ABI5 and ABI5C153S in pDEST22 (prey) and pDEST32 (bait); mating, diploids spotted on DOB-L-W-Histidine ± 3-AT, 28 °C; also in the presence of NO-related compounds
[2] = target: KEG-HA (KEEP ON GOING E3 ligase) (Arabidopsis thaliana) (UniProt Q9FY48); assay: co-IP; KEG-HA extract (1 mg, treated with 1 mM GSNO) captured on anti-HA Affinity Matrix, beads washed, then incubated 2 h at 4 °C with 1 mg of ABI5 or ABI5C153S soluble proteins treated with 1 mM GSNO; lysis buffer 100 mM Tris-HCl pH 7.5, 150 mM NaCl, 0.1% Tween-20; detection with anti-MYC
[3] = target: T1, FLAG-CUL4 (CULLIN4) (Arabidopsis thaliana) (UniProt Q8LGH4); assay: co-IP; FLAG-CUL4 extract (1 mg, treated with 1 mM GSNO) captured on anti-FLAG M2 Matrix, beads washed, then incubated 2 h at 4 °C with 1 mg of ABI5 or ABI5C153S soluble proteins treated with 1 mM GSNO; lysis buffer 100 mM Tris-HCl pH 7.5, 150 mM NaCl, 0.1% Tween-20; detection with anti-MYC
T1 sequence: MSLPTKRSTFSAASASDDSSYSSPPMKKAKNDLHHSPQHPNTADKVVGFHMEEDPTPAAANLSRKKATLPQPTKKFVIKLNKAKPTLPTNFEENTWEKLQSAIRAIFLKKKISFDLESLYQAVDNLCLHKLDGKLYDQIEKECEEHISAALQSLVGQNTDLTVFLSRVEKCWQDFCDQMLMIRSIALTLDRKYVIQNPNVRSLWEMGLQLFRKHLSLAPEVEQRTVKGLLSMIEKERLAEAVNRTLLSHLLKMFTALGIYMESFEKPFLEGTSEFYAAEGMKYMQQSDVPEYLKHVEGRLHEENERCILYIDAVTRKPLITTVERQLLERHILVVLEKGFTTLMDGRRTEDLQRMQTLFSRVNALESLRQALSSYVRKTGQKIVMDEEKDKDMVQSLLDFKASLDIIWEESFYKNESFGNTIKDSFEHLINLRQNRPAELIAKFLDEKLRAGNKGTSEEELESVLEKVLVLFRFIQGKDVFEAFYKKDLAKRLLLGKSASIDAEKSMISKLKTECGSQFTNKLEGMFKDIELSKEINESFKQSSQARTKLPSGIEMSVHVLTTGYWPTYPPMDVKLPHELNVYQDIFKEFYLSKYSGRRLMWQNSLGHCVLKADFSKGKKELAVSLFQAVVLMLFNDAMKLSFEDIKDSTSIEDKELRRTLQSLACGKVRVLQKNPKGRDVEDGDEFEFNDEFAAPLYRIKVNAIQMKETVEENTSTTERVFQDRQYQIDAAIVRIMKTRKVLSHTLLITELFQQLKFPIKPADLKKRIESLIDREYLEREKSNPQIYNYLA

[4] = target: ABI5C153S, yeast two-hybrid fusion (Arabidopsis thaliana) (UniProt Q9SJN0); assay: two-hybrid; ABI5 and ABI5C153S in pDEST22 (prey) and pDEST32 (bait); mating, diploids spotted on DOB-L-W-Histidine ± 3-AT, 28 °C; also in the presence of NO-related compounds

- binding [1]: binds
B1: ABI5 (ABA … 5, basic leucine zipper transcription factor), yeast two-hybrid fusion (protein, UniProt Q9SJN0 1-442)
chain: MVTRETKLTSEREVESSMAQARHNGGGGGENHPFTSLGRQSSIYSLTLDEFQHALCENGKNFGSMNMDEFLVSIWNAEENNNNQQQAAAAAGSHSVPANHNGFNNNNNNGGEGGVGVFSGGSRGNEDANNKRGIANESSLPRQGSLTLPAPLCRKTVDEVWSEIHRGGGSGNGGDSNGRSSSSNGQNNAQNGGETAARQPTFGEMTLEDFLVKAGVVREHPTNPKPNPNPNQNQNPSSVIPAAAQQQLYGVFQGTGDPSFPGQAMGVGDPSGYAKRTGGGGYQQAPPVQAGVCYGGGVGFGAGGQQMGMVGPLSPVSSDGLGHGQVDNIGGQYGVDMGGLRGRKRVVDGPVEKVVERRQRRMIKNRESAARSRARKQAYTVELEAELNQLKEENAQLKHALAELERKRKQQYFESLKSRAQPKLPKSNGRLRTLMRNPSCPL

- binding [2]: no binding
- binding [3]: no binding
B2: cMyc-ABI5C153S (transgenic, 35S:cMyc-ABI5C153S) (protein, UniProt Q9SJN0 1-442)
chain: B1 chain with C153S

- binding [2]: binds
- binding [3]: binds
B3: cMyc-ABI5 (transgenic, 35S:cMyc-ABI5) (protein, UniProt Q9SJN0 1-442)
chain: B1 chain

- binding [4]: binds
B4: ABI5C153S, yeast two-hybrid fusion (protein, UniProt Q9SJN0 1-442)
chain: B1 chain with C153S
